From the supplement of paper PMC10849652
Some of the results follow.

Protein sequences, listed by entry. Tags and fused reporters are not part of them. Lines headed by an entry give the natural chain unless they say otherwise; changes in a name come on top.
UniProt Q9BQE9, whole entry, looked up: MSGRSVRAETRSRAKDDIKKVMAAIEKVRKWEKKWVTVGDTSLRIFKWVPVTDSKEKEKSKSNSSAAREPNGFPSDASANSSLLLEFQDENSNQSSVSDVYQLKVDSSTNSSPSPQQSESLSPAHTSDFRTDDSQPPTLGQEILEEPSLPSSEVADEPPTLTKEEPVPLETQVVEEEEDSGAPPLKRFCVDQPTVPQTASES
UniProt Q9HB09: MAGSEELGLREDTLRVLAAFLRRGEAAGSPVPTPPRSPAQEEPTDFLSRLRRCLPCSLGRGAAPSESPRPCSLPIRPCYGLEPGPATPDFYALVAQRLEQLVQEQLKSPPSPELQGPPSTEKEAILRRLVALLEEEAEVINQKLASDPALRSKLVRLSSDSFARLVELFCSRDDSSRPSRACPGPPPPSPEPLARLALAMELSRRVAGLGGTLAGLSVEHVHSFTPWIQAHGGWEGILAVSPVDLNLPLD
UniProt O60909: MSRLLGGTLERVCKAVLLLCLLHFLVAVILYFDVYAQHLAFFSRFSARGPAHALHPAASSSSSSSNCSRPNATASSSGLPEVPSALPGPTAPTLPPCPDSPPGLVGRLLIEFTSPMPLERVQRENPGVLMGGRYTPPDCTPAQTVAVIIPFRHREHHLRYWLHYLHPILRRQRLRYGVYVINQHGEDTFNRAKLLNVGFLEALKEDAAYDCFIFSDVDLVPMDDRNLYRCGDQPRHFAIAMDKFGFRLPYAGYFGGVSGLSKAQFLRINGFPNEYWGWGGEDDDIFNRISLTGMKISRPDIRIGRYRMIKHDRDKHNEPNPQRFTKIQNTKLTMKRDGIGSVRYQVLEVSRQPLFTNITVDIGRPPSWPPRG
UniProt Q8IXM2, whole entry, looked up: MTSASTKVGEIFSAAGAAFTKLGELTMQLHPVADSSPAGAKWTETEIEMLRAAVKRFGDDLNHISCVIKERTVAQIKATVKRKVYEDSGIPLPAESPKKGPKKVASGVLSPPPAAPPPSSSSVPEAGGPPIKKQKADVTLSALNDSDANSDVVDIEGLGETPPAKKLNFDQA
UniProt P61769, whole entry, looked up: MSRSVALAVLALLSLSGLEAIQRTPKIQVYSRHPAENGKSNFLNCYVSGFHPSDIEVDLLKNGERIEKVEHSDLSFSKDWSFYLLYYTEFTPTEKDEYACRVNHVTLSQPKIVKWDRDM
UniProt Q9NWD9: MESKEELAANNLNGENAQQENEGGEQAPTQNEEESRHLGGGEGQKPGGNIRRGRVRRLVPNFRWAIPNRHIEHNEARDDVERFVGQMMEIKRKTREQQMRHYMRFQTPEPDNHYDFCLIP
UniProt Q6PGQ7, whole entry, looked up: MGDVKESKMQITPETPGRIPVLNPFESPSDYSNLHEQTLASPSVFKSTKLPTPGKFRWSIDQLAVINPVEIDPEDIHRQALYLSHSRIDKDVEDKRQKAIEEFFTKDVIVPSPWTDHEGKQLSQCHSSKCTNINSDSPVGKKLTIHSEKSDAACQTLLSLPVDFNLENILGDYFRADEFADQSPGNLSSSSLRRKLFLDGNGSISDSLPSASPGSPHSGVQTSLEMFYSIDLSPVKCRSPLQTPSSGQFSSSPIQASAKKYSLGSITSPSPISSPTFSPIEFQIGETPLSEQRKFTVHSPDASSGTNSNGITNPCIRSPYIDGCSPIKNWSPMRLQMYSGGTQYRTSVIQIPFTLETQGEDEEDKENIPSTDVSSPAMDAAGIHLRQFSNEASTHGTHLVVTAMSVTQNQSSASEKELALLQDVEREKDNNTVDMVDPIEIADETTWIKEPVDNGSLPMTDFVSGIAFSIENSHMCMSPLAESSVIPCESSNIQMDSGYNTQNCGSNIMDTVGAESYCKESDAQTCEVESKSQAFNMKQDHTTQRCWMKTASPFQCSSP
UniProt Q12983, whole entry, looked up: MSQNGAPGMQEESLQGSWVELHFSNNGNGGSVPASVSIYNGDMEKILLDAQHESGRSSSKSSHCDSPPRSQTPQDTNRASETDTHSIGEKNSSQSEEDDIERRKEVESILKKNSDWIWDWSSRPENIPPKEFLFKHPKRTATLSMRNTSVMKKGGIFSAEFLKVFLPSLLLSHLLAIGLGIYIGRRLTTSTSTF
UniProt Q8TBE0: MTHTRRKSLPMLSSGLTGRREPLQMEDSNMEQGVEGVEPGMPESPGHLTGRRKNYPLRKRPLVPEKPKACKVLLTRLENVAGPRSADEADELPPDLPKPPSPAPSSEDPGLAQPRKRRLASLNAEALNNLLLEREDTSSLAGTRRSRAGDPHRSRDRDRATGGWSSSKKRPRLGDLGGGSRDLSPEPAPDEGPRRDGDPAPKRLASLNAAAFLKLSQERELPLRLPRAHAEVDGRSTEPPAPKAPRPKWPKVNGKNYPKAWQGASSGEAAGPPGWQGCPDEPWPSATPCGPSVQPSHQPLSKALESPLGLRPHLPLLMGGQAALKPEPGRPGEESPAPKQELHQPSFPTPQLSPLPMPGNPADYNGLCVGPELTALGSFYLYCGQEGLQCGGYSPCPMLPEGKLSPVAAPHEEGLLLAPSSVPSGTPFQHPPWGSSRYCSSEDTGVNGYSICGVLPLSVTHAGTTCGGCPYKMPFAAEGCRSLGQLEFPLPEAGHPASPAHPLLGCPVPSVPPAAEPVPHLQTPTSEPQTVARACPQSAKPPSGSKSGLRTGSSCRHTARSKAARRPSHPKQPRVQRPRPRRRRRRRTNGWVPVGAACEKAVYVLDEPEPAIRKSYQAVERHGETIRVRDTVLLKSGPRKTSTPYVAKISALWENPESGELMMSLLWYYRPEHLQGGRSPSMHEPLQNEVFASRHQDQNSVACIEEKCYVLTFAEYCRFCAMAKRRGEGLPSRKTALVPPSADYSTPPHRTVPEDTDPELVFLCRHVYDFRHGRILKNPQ
UniProt Q7Z7M8: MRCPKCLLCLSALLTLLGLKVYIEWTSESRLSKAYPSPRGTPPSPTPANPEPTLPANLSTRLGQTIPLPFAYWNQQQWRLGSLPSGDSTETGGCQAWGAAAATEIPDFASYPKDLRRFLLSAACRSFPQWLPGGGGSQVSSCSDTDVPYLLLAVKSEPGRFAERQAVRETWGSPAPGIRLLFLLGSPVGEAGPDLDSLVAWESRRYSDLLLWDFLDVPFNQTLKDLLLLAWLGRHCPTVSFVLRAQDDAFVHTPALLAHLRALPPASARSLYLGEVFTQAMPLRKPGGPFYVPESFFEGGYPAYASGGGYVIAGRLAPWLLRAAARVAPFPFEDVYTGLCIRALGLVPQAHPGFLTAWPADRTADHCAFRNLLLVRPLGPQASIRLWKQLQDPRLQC
UniProt Q96IK1: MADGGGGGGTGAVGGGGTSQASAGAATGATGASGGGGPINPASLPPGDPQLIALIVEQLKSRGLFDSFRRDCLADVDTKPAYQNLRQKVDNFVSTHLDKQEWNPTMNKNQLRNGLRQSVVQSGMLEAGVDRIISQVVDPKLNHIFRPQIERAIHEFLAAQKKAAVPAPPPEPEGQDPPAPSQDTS
UniProt Q9NQS1: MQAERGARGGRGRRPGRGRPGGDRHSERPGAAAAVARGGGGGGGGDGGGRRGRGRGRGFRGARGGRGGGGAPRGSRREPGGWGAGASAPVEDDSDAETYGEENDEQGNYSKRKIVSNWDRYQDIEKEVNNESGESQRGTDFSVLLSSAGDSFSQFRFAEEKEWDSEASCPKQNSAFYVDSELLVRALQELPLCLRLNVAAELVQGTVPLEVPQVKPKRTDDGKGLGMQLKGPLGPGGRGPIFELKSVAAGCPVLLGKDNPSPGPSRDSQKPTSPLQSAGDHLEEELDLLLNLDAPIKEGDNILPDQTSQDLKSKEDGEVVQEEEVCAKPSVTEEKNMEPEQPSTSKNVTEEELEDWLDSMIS
UniProt O15169, whole entry, looked up: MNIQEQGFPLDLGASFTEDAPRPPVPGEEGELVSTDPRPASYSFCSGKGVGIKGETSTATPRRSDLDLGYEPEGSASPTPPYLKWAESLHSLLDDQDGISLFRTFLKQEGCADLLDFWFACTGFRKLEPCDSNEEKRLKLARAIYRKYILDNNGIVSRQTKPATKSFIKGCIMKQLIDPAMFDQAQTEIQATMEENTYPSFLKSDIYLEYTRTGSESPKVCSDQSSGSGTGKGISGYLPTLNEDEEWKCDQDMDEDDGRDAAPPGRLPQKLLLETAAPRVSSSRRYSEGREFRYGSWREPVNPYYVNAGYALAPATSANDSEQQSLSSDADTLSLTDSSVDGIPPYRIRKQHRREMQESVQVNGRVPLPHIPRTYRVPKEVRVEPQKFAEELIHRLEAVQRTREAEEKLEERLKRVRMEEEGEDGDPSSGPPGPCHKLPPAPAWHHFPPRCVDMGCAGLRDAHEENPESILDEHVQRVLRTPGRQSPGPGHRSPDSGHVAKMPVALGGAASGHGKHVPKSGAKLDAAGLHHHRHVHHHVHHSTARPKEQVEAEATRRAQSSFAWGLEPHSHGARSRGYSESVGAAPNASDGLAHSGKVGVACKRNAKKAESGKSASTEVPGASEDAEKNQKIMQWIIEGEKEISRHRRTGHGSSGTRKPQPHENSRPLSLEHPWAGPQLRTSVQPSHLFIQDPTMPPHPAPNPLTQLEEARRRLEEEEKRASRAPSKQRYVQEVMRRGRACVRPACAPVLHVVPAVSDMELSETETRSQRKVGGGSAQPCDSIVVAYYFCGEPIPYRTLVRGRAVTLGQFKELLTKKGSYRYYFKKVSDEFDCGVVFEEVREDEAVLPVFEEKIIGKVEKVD
UniProt Q9NZS9: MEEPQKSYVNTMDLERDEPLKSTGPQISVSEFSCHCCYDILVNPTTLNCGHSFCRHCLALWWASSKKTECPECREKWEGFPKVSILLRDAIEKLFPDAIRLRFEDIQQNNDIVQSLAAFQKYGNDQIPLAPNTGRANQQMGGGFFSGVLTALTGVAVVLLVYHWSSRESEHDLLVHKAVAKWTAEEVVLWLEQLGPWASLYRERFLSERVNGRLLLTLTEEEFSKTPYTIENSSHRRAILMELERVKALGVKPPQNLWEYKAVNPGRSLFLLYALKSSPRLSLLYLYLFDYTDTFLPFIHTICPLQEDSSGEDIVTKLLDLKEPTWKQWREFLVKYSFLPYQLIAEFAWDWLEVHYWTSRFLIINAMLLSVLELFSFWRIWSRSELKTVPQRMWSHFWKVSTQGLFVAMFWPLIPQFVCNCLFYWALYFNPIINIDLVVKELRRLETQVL
UniProt O43521, whole entry, looked up: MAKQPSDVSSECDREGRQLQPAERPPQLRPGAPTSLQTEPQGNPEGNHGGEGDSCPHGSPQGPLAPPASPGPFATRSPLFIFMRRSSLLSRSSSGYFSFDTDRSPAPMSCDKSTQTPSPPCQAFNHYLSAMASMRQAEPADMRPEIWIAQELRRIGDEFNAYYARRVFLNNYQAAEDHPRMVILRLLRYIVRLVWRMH
UniProt O00499: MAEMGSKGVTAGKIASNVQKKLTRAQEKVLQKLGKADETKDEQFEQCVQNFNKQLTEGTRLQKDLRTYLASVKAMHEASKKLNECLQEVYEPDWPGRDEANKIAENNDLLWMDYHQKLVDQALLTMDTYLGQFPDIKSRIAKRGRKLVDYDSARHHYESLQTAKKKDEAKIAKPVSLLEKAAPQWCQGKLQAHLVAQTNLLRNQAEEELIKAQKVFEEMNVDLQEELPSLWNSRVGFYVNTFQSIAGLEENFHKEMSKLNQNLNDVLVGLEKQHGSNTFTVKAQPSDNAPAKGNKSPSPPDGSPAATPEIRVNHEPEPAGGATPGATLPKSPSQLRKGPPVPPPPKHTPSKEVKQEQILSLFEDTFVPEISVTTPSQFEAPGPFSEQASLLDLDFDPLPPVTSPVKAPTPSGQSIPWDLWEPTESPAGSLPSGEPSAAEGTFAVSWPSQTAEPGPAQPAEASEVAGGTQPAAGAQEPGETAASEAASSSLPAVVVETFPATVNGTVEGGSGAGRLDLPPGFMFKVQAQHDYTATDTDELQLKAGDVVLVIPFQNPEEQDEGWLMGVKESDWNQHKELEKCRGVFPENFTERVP
UniProt Q96G97: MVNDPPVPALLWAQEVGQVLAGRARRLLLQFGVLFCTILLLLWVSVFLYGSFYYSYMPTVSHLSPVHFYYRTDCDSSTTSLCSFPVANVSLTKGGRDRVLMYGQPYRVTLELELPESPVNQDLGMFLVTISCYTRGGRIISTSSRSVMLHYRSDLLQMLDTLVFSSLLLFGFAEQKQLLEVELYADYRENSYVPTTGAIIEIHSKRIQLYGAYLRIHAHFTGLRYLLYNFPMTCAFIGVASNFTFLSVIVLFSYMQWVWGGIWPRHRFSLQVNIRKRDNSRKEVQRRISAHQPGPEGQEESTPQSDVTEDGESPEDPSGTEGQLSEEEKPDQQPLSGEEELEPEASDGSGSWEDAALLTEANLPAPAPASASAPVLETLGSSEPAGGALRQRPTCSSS
UniProt Q7Z5W3: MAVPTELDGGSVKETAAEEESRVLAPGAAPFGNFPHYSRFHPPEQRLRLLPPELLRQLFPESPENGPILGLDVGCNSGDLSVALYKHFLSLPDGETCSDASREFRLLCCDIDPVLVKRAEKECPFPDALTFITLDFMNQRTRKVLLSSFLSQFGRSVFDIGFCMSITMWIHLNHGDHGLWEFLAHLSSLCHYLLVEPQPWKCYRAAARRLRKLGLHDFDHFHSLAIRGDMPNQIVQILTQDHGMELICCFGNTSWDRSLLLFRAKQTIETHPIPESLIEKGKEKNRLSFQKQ

Key:
Assay in all cases: log2 fold change, soluble protein after heating vs DMSO (PISA); higher = thermal stabilisation; K562 cells, 10 uM, 30 min; active = over 0.2 and 3.5 SD of the protein, either way, in both replicates (recomputed)
filanesib = compound: CON(C)C(=O)N1N=C(c2cc(F)ccc2F)S[C@@]1(CCCN)c1ccccc1 [filanesib]
How it was run: (§1)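 Soluble protein was quantified by TMTpro 16plex LC-MS/MS after channel sums were equalised. It was obtained as the supernatant after 21,000xg for 90 min from pooled aliquots of K562 cells (2×10^6 cells/mL, 10 μM compound, 30 min) heated for 3 min across 48°C-58°C and extracted in PBS with 0.5% NP-40 at 4°C. Thermal stability values are relative to control samples and come from duplicates. They are given as log2 fold changes.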

zotarolimus = compound: CO[C@H]1C[C@@H]2CC[C@@H](C)[C@@](O)(O2)C(=O)C(=O)N2CCCC[C@H]2C(=O)O[C@H]([C@H](C)C[C@@H]2CC[C@H](n3cnnn3)[C@H](OC)C2)CC(=O)[C@H](C)/C=C(\C)[C@@H](O)[C@@H](OC)C(=O)[C@H](C)C[C@H](C)/C=C/C=C/C=C/1C [zotarolimus]
How it was run: as §1

idasanutlin = compound: COc1cc(C(=O)O)ccc1NC(=O)[C@@H]1N[C@@H](CC(C)(C)C)[C@](C#N)(c2ccc(Cl)cc2F)[C@H]1c1cccc(Cl)c1F [idasanutlin]
How it was run: as §1

alisertib = compound: COc1cc(Nc2ncc3c(n2)-c2ccc(Cl)cc2C(c2c(F)cccc2OC)=NC3)ccc1C(=O)O [alisertib]
How it was run: as §1

[1] = compound: COc1cc2nc(-c3cc(F)ccc3O)nc(N[C@@H]3CNC[C@H]3C(C)(C)O)c2cc1OC
How it was run: as §1

gefitinib = compound: COc1cc2ncnc(Nc3ccc(F)c(Cl)c3)c2cc1OCCCN1CCOCC1 [gefitinib]
How it was run: as §1

[2] = compound: COc1cccc2cc(-c3nc([C@H]4CC[C@H](C(=O)O)CC4)n4ncnc(N)c34)[nH]c12
How it was run: as §1

lapatinib = compound: CS(=O)(=O)CCNCc1ccc(-c2ccc3ncnc(Nc4ccc(OCc5cccc(F)c5)c(Cl)c4)c3c2)o1 [lapatinib]
How it was run: as §1

pictilisib = compound: CS(=O)(=O)N1CCN(Cc2cc3nc(-c4cccc5[nH]ncc45)nc(N4CCOCC4)c3s2)CC1 [pictilisib]
How it was run: as §1

[3] = compound: COC1=CC=C(C=C1)CN2C=CC3=C2C=C(C=C3)C(=O)NO
How it was run: as §1

Measured: log2 fold change

BRD4 (UniProt O60885)
inactive: filanesib -0.068 | zotarolimus -0.253 | idasanutlin -0.001 | alisertib -0.064 | [1] 0.078 | gefitinib 0.152 | [2] -0.003 | lapatinib -0.039 | pictilisib 0.161

BRAF, A0A2R8Y8E0
inactive: [3] -0.008 | idasanutlin 0.221 | alisertib -0.054 | gefitinib -0.027 | [2] -0.326

BCL7B (UniProt Q9BQE9)
inactive: [3] 0.112 | zotarolimus 0.047 | alisertib -0.141 | [2] 0.134

BCL2L12 (UniProt Q9HB09)
inactive: zotarolimus 0 | idasanutlin -0.15 | alisertib -0.003 | [1] -0.104 | gefitinib 0.017 | [2] 0.044 | lapatinib 0.019 | pictilisib 0.004

B4GALT2 isoform 3 (UniProt O60909)
inactive: filanesib 0.184

BAP18 isoform 3 (UniProt Q8IXM2)
inactive: alisertib -0.033 | [2] 0.12 | pictilisib -0.093

AZI2 (UniProt Q9H6S1)
inactive: filanesib 0.006 | gefitinib 0.227

BPIFB1 (UniProt Q8TDL5)
inactive: filanesib -0.093 | gefitinib 0.373

BAIAP2 isoform 4 (UniProt Q9UQB8)
inactive: filanesib 0.302 | zotarolimus -0.184

BCL7C isoform 2 (UniProt Q8WUZ0)
inactive: filanesib 0.035 | zotarolimus 0.072 | alisertib -0.166 | gefitinib -0.074 | [2] 0.057

B2M (UniProt P61769)
inactive: filanesib 0.021 | zotarolimus 0.151 | idasanutlin -0.011 | alisertib -0.04 | [1] -0.008 | gefitinib 0.057 | [2] 0.045 | lapatinib -0.065 | pictilisib 0.067

BNIP2 (UniProt H7C096)
inactive: alisertib 0.024 | [2] -0.021

B4GALT4 (UniProt O60513)
inactive: filanesib 0.273 | gefitinib 0.106 | pictilisib 0.123

AURKB isoform 5 (UniProt Q96GD4)
inactive: idasanutlin 0.184 | gefitinib -0.025

2 consecutive records from above, quoted:
B2M (UniProt P61769)
inactive: filanesib 0.021 | zotarolimus 0.151 | idasanutlin -0.011 | alisertib -0.04 | [1] -0.008 | gefitinib 0.057 | [2] 0.045 | lapatinib -0.065 | pictilisib 0.067

BNIP2 (UniProt H7C096)
inactive: alisertib 0.024 | [2] -0.021

Remaining list, next part:

BEX4 (UniProt Q9NWD9)
inactive: filanesib 0.017 | zotarolimus -0.043 | alisertib 0.015 | [2] 0.027

ATXN2L (UniProt H3BUF6)
inactive: [3] 0.07 | alisertib -0.175 | [1] 0.062 | gefitinib 0.032 | [2] -0.056 | lapatinib 0.066 | pictilisib -0.359

BCL7C (UniProt Q8WUZ0)
inactive: alisertib 0.905 | [2] -0.127

ATRX (UniProt P46100)
inactive: zotarolimus 0.042 | idasanutlin 0.149 | pictilisib -0.039

BORA (UniProt Q6PGQ7)
inactive: filanesib 0.006

BNIP3 (UniProt Q12983)
inactive: filanesib -0.12 | idasanutlin 0.006 | alisertib 0.037 | [1] -0.08 | gefitinib -0.018 | [2] 0.124 | lapatinib 0.016 | pictilisib -0.04

BCL7A isoform 2 (UniProt Q4VC05)
inactive: filanesib -0.025 | idasanutlin 0.104 | [1] 0.156 | lapatinib 0.052

BAHD1 (UniProt Q8TBE0)
inactive: alisertib 0.094 | [1] -0.032 | gefitinib 0.003 | [2] -0.008 | lapatinib 0.03 | pictilisib 0.168

B3GNT8 (UniProt Q7Z7M8)
inactive: filanesib 0.045

BOD1 (UniProt Q96IK1)
inactive: alisertib 0.034 | [2] 0.029 | pictilisib -0.025

BRMS1 (UniProt Q9HCU9)
inactive: idasanutlin 0.066 | alisertib -0.074 | [2] 0.007 | pictilisib 0.042

BPNT1 (UniProt A6NF51)
inactive: [3] 0.042 | alisertib -0.202 | [2] 0.065

AVEN (UniProt Q9NQS1)
inactive: zotarolimus -0.07 | [1] 0.16 | lapatinib 0.035 | pictilisib 0.031

AXIN1 (UniProt O15169)
inactive: pictilisib 0.111

BFAR (UniProt Q9NZS9)
inactive: alisertib 0.037 | [1] -0.351 | [2] -0.105 | lapatinib 0.017

BLZF1 (UniProt Q9H2G9)
inactive: filanesib 0.281 | zotarolimus 0.183

AUNIP isoform 2 (UniProt Q9H7T9)
inactive: filanesib 0.125 | zotarolimus -0.044 | idasanutlin 0.142 | [1] -0.229 | lapatinib 0.099

ATXN2 (UniProt F8W0B5)
inactive: filanesib 0.225 | zotarolimus -0.017 | idasanutlin 0.101 | alisertib -0.024 | gefitinib -0.011 | [2] 0.062 | pictilisib 0.194

BCL2L11 (UniProt O43521)
inactive: filanesib 0.04 | zotarolimus -0.006 | idasanutlin 0.019 | alisertib 0.006 | gefitinib 0.09 | [2] 0.055 | pictilisib 0.254

BIN1 (UniProt O00499)
inactive: alisertib -0.146 | [2] 0.012

BSCL2 isoform 4 (UniProt Q96G97)
inactive: zotarolimus 0.076 | idasanutlin -0.132 | alisertib -0.037 | [1] -0.248 | gefitinib 0.021 | [2] 0.069 | lapatinib 0.048 | pictilisib 0.126

BCDIN3D (UniProt Q7Z5W3)
inactive: zotarolimus 0.12 | idasanutlin -0.004

BET1L (UniProt Q9NYM9)
inactive: filanesib -0.01 | zotarolimus 0.012 | idasanutlin -0.111 | alisertib 0.002 | [1] -0.007 | gefitinib -0.005 | [2] 0.085 | lapatinib 0.02

BHMT (UniProt Q93088)
inactive: filanesib -0.159

AURKAIP1 (UniProt Q9NWT8)
inactive: filanesib 0.332 | zotarolimus 0.033 | idasanutlin 0.05 | alisertib -0.006 | [2] -0.151

BCAS1 (UniProt O75363)
inactive: filanesib 0.022 | zotarolimus -0.003 | idasanutlin -0.016 | alisertib -0.218 | [1] 0.035 | gefitinib 0.118 | [2] 0.249 | lapatinib -0.033 | pictilisib 0.04
